Measurements published in PMC4305327.
Results are given in words; binding and its absence hold for the method and conditions named. In cells and extracts the contact can be indirect. Some results given as binding are weak or reduced against the parent protein; the word gives no strength.

Sequences of proteins named here, by UniProt entry; tags and fusion partners are left off.
UniProt P48436: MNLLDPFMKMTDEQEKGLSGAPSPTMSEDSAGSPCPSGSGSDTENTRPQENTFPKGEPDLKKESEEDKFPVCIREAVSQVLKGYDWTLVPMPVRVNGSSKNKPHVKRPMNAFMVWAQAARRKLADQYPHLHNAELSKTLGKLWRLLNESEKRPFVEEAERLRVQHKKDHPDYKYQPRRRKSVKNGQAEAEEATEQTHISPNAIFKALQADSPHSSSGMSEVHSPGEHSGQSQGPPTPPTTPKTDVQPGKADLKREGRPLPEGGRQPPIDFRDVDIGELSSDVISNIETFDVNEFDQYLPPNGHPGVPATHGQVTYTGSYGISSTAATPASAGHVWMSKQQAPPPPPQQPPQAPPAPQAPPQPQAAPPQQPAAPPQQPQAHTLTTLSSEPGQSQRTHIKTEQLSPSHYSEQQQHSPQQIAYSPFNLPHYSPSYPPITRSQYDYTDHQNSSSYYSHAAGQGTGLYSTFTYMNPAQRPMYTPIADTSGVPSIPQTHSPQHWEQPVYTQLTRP
UniProt Q01844: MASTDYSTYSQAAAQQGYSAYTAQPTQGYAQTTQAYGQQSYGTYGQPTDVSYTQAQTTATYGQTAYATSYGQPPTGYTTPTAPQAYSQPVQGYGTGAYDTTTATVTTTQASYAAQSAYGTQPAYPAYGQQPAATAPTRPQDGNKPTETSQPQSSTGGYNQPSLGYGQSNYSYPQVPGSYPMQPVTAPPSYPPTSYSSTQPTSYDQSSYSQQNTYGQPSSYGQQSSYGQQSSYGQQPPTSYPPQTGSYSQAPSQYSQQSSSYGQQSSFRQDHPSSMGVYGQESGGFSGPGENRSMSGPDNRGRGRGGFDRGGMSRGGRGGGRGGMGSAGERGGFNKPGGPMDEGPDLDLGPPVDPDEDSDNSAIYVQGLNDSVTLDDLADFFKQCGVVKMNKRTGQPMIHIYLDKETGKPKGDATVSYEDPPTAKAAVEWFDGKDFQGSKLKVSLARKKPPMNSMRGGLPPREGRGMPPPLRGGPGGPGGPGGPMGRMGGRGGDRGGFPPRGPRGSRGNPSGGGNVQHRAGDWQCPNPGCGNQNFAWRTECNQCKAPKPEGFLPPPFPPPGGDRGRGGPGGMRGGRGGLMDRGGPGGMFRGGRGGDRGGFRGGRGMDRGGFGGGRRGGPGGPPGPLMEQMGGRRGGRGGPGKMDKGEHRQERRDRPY

Target: FLAG-tagged SOX9, human (human) (UniProt P48436)
Experiment: co-IP; lysate of HeLa cells transfected with FLAG-SOX9 (or empty vector, or untransfected) in 2 mM Tris pH 7.6, 1% Triton X-100, 1 mM EDTA, 150 mM NaCl; anti-FLAG antibody or anti-mouse IgG control on protein G beads, 4°C, 1 hour; blot with anti-EWS

With “EWS (EWSR1, Ewing sarcoma breakpoint region 1), human (from UniProt Q01844 1-656)” the binding was “binds”.
